Values quoted from earlier work, collected in US10561658B2, “Thieno- and pyrrolopyrimidine analogues as anticancer agents and methods of use thereof” (UNIVERSITY OF MARYLAND, BALTIMORE COUNTY, priority 2015, dated 2020).
For at least one compound, name, drawing or mass did not settle the structure. Some results were stated once for a whole list of compounds, not compound by compound.

Test system: melanoma
Settings: melanoma patients; cited from earlier work

Row | SMILES | response rate [%] | time to relapse with lethal drug resistant disease
1 | Cn1nnc2c(C(N)=O)ncn2c1=O [temozolomide] | < 20 | 
2 | CCCS(=O)(=O)Nc1ccc(F)c(C(=O)c2c[nH]c3ncc(-c4ccc(Cl)cc4)cc23)c1F [vemurafenib] |  | 5-7 months
